The results in this text go back to the supplement of paper PMC12819154, “High-throughput peptide-centric local stability assay extends protein–ligand identification to membrane proteins, tissues and bacteria” (Nature Structural & Molecular Biology, 2025).

Protein sequences, listed by entry. Tags and fused reporters are not part of them. Lines headed by an entry give the natural chain unless they say otherwise; changes in a name come on top.
UniProt P76502: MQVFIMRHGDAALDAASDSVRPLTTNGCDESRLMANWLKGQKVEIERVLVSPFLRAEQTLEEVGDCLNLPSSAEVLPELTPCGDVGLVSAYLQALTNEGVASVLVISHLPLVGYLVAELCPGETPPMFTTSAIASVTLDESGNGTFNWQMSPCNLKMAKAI
UniProt P76134: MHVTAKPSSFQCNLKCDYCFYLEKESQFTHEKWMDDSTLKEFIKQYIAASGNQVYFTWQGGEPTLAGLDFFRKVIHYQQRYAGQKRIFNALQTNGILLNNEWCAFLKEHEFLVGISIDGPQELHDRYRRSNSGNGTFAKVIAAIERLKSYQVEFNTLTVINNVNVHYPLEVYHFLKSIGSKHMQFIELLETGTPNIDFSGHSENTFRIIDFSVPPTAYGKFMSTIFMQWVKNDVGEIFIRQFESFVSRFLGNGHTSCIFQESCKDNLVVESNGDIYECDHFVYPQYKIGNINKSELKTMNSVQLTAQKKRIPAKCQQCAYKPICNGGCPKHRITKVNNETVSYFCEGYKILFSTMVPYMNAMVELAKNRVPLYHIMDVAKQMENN
UniProt P76043: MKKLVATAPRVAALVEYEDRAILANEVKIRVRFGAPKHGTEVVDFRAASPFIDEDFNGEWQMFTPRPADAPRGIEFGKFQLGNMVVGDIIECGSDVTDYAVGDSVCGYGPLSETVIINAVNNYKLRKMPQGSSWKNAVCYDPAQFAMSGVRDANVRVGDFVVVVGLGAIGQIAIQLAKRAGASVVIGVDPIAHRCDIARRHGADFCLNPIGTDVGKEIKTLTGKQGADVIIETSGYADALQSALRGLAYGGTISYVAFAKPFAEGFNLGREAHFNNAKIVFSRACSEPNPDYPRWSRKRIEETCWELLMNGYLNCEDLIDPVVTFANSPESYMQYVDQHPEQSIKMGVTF
UniProt P77433: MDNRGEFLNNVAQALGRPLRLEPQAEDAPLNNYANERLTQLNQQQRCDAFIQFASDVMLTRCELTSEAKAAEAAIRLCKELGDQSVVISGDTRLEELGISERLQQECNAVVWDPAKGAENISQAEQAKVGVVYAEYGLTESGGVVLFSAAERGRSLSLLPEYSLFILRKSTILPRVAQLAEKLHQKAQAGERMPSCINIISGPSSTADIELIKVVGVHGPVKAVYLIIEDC
UniProt P76220: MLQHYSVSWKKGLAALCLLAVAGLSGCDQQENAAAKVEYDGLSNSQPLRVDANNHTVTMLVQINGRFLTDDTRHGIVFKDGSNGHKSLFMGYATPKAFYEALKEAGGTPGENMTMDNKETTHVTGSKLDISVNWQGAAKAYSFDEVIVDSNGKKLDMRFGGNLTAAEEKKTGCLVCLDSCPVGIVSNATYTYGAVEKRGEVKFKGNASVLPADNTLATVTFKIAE
UniProt P76053: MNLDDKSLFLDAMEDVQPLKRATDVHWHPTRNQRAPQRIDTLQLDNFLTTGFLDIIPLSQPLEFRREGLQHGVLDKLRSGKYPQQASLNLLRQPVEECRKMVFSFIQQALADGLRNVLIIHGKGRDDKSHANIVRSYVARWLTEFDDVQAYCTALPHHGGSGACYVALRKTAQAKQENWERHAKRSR
UniProt P76550: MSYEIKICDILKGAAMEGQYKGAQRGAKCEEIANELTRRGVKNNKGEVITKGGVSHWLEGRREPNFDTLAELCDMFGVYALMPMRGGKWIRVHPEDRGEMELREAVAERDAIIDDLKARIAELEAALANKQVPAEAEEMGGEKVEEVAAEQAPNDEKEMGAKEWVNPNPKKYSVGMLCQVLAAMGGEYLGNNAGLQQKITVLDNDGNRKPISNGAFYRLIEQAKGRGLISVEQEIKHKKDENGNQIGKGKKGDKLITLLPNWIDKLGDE
UniProt P77376: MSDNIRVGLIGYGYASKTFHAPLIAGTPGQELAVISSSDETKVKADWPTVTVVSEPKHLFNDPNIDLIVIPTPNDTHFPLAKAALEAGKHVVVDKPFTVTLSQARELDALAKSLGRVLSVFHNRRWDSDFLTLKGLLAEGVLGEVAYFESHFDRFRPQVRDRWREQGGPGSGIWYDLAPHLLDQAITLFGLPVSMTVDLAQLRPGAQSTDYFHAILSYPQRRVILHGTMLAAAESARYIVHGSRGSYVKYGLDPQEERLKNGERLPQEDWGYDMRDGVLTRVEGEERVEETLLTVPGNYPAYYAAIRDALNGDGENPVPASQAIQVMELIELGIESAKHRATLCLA
UniProt P76156: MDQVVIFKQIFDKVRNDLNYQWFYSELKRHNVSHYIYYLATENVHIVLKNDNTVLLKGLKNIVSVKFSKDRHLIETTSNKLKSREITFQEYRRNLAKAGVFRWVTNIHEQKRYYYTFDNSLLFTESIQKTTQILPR
UniProt P76237: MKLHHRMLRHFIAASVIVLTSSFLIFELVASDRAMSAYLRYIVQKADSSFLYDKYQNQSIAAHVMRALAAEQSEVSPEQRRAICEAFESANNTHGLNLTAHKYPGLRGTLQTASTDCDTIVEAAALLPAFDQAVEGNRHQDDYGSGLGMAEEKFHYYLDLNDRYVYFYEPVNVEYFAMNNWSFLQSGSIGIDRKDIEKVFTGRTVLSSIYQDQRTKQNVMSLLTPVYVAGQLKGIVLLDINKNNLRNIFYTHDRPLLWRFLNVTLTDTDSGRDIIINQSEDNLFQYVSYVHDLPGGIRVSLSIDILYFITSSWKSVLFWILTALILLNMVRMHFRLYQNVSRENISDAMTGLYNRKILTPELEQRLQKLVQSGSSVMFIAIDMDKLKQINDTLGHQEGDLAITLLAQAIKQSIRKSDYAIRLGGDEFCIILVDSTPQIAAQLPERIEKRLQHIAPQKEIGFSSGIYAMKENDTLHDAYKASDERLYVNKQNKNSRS
UniProt P77330: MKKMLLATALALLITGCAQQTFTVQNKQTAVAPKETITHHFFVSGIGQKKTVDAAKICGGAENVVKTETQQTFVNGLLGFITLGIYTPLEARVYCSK
UniProt P76250: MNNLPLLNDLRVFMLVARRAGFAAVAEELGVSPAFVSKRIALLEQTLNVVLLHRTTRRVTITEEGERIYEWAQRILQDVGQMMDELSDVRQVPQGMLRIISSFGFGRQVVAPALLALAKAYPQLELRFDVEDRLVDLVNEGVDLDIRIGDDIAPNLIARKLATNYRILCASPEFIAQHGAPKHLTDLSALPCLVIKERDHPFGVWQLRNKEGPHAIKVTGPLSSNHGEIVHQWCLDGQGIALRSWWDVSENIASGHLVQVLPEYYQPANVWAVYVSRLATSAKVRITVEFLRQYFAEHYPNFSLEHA
UniProt P76389: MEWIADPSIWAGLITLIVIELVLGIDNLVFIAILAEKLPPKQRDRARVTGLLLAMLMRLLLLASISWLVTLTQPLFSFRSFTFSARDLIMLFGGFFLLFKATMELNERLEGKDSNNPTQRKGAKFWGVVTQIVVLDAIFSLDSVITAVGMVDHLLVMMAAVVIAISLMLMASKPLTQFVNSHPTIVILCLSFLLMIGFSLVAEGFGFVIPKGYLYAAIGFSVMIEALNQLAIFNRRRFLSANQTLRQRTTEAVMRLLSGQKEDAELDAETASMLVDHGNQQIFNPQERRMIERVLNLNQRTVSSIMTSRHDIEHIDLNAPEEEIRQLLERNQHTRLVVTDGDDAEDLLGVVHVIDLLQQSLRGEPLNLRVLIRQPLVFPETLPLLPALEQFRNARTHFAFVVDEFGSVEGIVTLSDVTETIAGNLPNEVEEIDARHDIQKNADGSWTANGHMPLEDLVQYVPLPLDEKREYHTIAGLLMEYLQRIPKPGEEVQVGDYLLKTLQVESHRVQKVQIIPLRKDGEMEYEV
UniProt P75952: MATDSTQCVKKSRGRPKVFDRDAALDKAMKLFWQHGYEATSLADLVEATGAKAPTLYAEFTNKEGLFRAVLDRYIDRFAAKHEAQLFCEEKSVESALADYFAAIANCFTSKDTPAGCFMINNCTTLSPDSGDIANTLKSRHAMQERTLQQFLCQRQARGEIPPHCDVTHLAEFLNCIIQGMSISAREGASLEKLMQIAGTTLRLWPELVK
UniProt P76361: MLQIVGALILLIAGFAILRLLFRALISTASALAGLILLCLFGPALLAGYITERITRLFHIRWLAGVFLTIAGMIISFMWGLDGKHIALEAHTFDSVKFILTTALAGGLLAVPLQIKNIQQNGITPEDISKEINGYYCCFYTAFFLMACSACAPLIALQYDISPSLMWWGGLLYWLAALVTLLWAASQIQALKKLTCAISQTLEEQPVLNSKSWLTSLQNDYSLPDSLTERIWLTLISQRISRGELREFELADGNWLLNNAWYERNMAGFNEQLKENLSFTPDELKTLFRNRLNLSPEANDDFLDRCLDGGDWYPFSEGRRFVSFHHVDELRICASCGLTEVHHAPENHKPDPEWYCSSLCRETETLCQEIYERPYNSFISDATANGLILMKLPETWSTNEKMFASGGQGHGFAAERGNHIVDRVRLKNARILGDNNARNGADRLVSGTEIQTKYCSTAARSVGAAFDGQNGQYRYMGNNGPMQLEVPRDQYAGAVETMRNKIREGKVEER
UniProt P77302: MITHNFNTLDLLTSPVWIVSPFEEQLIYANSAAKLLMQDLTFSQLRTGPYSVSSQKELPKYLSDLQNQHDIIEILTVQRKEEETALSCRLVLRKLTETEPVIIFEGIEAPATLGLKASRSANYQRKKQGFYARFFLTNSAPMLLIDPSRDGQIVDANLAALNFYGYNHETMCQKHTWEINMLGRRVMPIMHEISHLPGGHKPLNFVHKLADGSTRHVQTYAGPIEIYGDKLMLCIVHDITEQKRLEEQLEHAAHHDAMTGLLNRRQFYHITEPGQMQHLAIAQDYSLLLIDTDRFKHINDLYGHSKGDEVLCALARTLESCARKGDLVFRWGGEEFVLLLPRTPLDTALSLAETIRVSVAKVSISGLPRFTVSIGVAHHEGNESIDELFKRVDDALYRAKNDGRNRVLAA
UniProt P76062: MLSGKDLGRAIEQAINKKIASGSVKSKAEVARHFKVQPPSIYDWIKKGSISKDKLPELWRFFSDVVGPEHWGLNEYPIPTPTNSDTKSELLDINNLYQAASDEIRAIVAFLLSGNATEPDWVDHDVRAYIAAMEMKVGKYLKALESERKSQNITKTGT
UniProt P76208: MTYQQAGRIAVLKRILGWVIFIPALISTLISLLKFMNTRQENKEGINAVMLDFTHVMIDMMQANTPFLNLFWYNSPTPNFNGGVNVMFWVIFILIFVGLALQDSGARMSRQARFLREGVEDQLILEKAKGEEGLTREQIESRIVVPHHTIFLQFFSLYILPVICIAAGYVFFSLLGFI
UniProt P77396: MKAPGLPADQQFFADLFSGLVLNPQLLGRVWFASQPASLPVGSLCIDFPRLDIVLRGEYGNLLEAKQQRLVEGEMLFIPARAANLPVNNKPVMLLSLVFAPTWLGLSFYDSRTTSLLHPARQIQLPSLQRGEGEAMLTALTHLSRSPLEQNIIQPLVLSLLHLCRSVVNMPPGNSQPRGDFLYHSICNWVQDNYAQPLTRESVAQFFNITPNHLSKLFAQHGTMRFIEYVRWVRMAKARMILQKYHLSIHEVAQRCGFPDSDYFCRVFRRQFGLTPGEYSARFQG
UniProt P75915: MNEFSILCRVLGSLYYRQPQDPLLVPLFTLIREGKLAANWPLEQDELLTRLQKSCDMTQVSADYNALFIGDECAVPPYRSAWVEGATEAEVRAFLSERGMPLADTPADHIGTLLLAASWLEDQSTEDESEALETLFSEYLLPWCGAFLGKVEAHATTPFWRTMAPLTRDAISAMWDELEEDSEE
UniProt P76569: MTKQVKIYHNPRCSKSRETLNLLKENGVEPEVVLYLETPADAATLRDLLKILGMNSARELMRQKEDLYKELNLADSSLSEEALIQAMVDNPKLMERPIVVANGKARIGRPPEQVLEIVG
UniProt P77348: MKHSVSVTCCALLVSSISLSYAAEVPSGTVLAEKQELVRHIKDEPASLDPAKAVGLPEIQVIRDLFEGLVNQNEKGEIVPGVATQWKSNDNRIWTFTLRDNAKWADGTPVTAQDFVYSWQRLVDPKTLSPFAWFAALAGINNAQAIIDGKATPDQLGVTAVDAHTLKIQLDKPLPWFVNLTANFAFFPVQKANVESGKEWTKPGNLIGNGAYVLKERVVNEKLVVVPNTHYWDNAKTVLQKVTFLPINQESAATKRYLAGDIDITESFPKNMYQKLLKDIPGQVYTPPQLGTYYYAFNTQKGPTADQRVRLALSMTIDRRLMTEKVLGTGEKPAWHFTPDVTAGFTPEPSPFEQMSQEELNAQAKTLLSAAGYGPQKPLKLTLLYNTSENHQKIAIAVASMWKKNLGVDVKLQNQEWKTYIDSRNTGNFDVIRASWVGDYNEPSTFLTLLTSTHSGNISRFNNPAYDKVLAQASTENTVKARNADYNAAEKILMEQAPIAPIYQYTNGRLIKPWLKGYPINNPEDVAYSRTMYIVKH
UniProt P76076: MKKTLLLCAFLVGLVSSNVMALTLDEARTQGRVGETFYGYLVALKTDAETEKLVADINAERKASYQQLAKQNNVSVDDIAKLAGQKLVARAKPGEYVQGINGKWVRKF
UniProt P76573: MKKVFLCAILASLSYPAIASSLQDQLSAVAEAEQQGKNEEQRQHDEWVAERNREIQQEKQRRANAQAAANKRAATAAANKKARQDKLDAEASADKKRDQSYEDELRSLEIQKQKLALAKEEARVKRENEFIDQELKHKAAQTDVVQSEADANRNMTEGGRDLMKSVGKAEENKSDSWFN

This is one part of the list. Most entries show no effect beyond the scatter of the controls.

Compound in this experiment: CC1(C)S[C@@H]2[C@H](NC(=O)[C@H](N)c3ccccc3)C(=O)N2[C@H]1C(=O)O [ampicillin]
Kind of experiment: log2 fold change of tryptic peptide abundance, ligand vs vehicle (limited proteolysis) (log2 ratio); higher = more trypsin-susceptible (destabilized). To be noted: ligand concentration: 10 uM; sample: E. coli crude lysate.
“UniProt P76502 (peptide sequence: LMANWLK, peptide start residue: 33)”: the log2 fold change was -0.153.

Regarding “UniProt P76134 (peptide sequence: ESQFTHEK, peptide start residue: 25)”, the log2 fold change was -0.78.

With “UniProt P76043 (peptide sequence: EAHFNNAK, peptide start residue: 271)”, the log2 fold change was -0.303.

As for “UniProt P77433 (peptide sequence: SLSLLPEYSLFILRK, peptide start residue: 155)”, the log2 fold change was -0.333.

For the target “UniProt P76220 (peptide sequence: FGGNLTAAEEK, peptide start residue: 159)”, the log2 fold change is -0.0272.

Take “UniProt P76053 (peptide sequence: YPQQASLNLLR, peptide start residue: 82)”: the log2 fold change was -0.659.

In the case of “UniProt P76550 (peptide sequence: ICDILKGAAMEGQYK, peptide start residue: 7)”, the log2 fold change is -0.244.

Regarding “UniProt P77376 (peptide sequence: VILHGTMLAAAESAR, peptide start residue: 223)”, the log2 fold change was 0.439.

For “UniProt P76156 (peptide sequence: NDLNYQWFYSELKR, peptide start residue: 16)”, the log2 fold change was -0.244.

On to “UniProt P76086 (peptide sequence: LNKEGWLDVSR, peptide start residue: 64)”, for which the log2 fold change was -0.238.

On to “UniProt P76536 (peptide sequence: REVAVIKDGVDAGGSYVFVQR, peptide start residue: 155)”, for which the log2 fold change came to 0.731.

As for “UniProt P76237 (peptide sequence: ENDTLHDAYK, peptide start residue: 470)”, the log2 fold change was -1.02.

Regarding “UniProt P77330 (peptide sequence: ETITHHFFVSGIGQK, peptide start residue: 35)”, the log2 fold change is -0.116.

As for “UniProt P76639 (peptide sequence: LAKQDQGYK, peptide start residue: 243)”, the log2 fold change was -0.145.

On to “UniProt P76373 (peptide sequence: KPQVVGIYR, peptide start residue: 295)”, for which the log2 fold change was found to be 0.934.

For the target “UniProt P76250 (peptide sequence: AGFAAVAEELGVSPAFVSKR, peptide start residue: 20)”, the log2 fold change was determined as 0.473.

As for “UniProt P76389 (peptide sequence: ATMELNER, peptide start residue: 101)”, the log2 fold change is -0.179.

Consider “UniProt P75952 (peptide sequence: DAALDKAMK, peptide start residue: 22)”, for which the log2 fold change was 1.06.

“UniProt P76361 (peptide sequence: ILGDNNAR, peptide start residue: 431)”: the log2 fold change is -0.271.

With “UniProt P77302 (peptide sequence: KKQGFYAR, peptide start residue: 126)”, the log2 fold change was -0.701.

On to “UniProt P76062 (peptide sequence: AIEQAINK, peptide start residue: 10)”, for which the log2 fold change is -0.295.

For the target “UniProt P77247 (peptide sequence: QPWNGPSR, peptide start residue: 65)”, the log2 fold change was 0.231.

“UniProt P76208 (peptide sequence: EGVEDQLILEK, peptide start residue: 117)”: the log2 fold change is -0.0227.

Consider “UniProt P77396 (peptide sequence: QFGLTPGEYSAR, peptide start residue: 271)”, for which the log2 fold change was found to be 0.234.

For the target “UniProt P75915 (peptide sequence: VLGSLYYR, peptide start residue: 10)”, the log2 fold change was -0.162.

On to “UniProt P76569 (peptide sequence: ILGMNSAR, peptide start residue: 51)”, for which the log2 fold change worked out at 0.15.

“UniProt P77348 (peptide sequence: TLLSAAGYGPQKPLK, peptide start residue: 366)”: the log2 fold change was -0.27.

Regarding “UniProt P76562 (peptide sequence: SALAGQLISR, peptide start residue: 206)”, the log2 fold change was found to be 0.322.

“UniProt P77309 (peptide sequence: LSPAGHNFLR, peptide start residue: 57)”: the log2 fold change is 0.132.

Turning to “UniProt P76076 (peptide sequence: LVADINAER, peptide start residue: 53)”, the log2 fold change stood at 0.296.

For “UniProt P76573 (peptide sequence: DQSYEDELR, peptide start residue: 98)”, the log2 fold change is -0.313.
